Reference: patent US20260193623

Legend:
[1] = tested on: MG140-8c5 (C-terminal endonuclease trim); assay: activity assay; conditions: purified recombinant protein
[2] = tested on: MG140-8c5 (C-terminal endonuclease trim); assay: FP; conditions: strand displacement, dNTP dependent; purified recombinant protein; label: 5'-FAM displacement oligo; DNA:RNA hybrid

## GACCGGAACTCTTTGGAATGGGAATAAGATCATTGATGAAAGACTTATAAATCCTGATGGGAGTCTCCTCTTTAGAGTGACAATTAATGGGGTAACAGGATGGAGACTCTGTGAGCGGATCTTGGCTTAGCCCAAACCCAAACCCAAACC / CCCCTCGAGGTCGACGGTATCGATAAGCTTGATATCGAATTCCTGCAGCCCGGGGGATCCACTAGTTCTAGAGCGGCCGCCACCGCGGTGGAGCTCCAGCTTTTGTTCCCTTTAGTGAGGGTTAATTTCGAGCTTGGCGTAATCATGGTCTT [primed Donor RNA plus Acceptor RNA (template switching)]
[1]; template switching
  activity on this sequence: active

## GGCAAACCGCCTCTCCCCGCGCGTTGGCCGATTCATTAATGCAGCTGGCACGACAGGTTTCCCGACTGGAAAGGAGACCCGGGCAGTGAGCGCAACGGGTCTCCAATTTAAGCCAGCCCCGACACCCGCCAACACCCGCTGACGCGCCCTGACGGGCTTGTCTGCTCCCGGCATCCGCTTACAGACAAGCTGTGACCGTCTC / GAGACGGTCACAGCTTGTCTG / CGCGCGGGGAGAGGC [RNA template with priming and displacement oligos]
[2]
  activity on this sequence: active

## GGCAAACCGCCTCTCCCCGCGCGTTGGCCGATTCATTAATGCAGCTGGCACGACAGGTTTCCCGACTGGAAAGGAGACCCGGGCAGTGAGCGCAACGGGTCTCCAATTTAAGCCAGCCCCGACACCCGCCAACACCCGCTGACGCGCCCTGACGGGCTTGTCTGCTCCCGGCATCCGCTTACAGACAAGCTGTGACCGTCTC / GAGACGGTCACAGCTTGTCTG [202-nt m1-pseudouridine RNA template annealed to DNA primer]
[1]; all U replaced by N1-methylpseudouridine in RNA, retains appreciable activity on m1-pseudouridine template, label: 5'-FAM primer, DNA:RNA hybrid
  activity on this sequence: active

## TAGAAGTCCTCTTGGCGCCGAAGGATGGCGTGAAGCTCCTCAAGATGGATCTGGTGTGGAATGCTCCCATTGTCGAAAGTGCGCTGCTTCCGCAGCAGAT / ATCTGCTGCGGAAGCAGC / CGGCGCCAAGAGGACTTCTA [100-nt ssDNA template with priming and quencher oligos]
[1]; second-strand synthesis, fluorescence unquenching, label: 5'-FAM template, 3'-quencher oligo, folded or branched DNA
  activity on this sequence: active

## TAGAAGTCCTCTTGGCGCCGAAGGATGGCGTGAAGCTCCTCAAGATGGATCTGGTGTGGAATGCTCCCATTGTCGAAAGTGCGCTGCTTCCGCAGCAGAT / CGGCGCCAAGAGGACTTCTA [unprimed 100-nt RNA template with quencher oligo]
[1]; active on unprimed RNA, label: 5'-FAM template, 3'-quencher oligo, DNA:RNA hybrid
  activity on this sequence: active

Construct, isoform or probe ends are uncertain for at least one entry.
